PubChem BioAssay AID1259300 | Sanger Institute – 2017
The deposit covers 794 reagents; this is an unselected part. 18 of them (2.3%) were called active. 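Calls rest on knock-down alone, not drug synergy; depositor treated synergy scores above 0.15 as synergistic; drug doses alone had little viability effect.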 Not all columns of the deposit are shown. Not given: the amount of reagent, the time to read-out.

Purpose: 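Which knock-downs harm HCT15 alone or synergise with the drugs BYL719, cetuximab or trametinib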 (primary screen)
Cell system: HCT15 colorectal cancer cells
Reagent: siRNA pool against human genes
Conditions: anchor drug or DMSO vehicle added 24 h after seeding: BYL719 1 µM, cetuximab 5 µg/ml, trametinib 10 nM; drug doses chosen to barely affect viability alone
Detection: 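Replicate-mean viability relative to non-targeting pool control with robust z-score for knock-down without drug; per-drug synergy scores for BYL719 (1 µM), cetuximab (5 µg/ml), trametinib (10 nM)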
Direction: viability z-score, siRNA alone: higher = more viable cells after knock-down
Hit rule: 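Called active (essential) if viability z-score with knock-down alone falls below -3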
Meaning of the calls: active = essential: knock-down alone lowers viability (z below -3); inactive = no strong viability loss with knock-down alone

Target gene	viability z-score, siRNA alone	outcome
STK17B (serine/threonine kinase 17b)	0.455	inactive
CDKN1B (cyclin dependent kinase inhibitor 1B)	0.402	inactive
SMAD2 (SMAD family member 2)	0.625	inactive
DLG4 (discs large MAGUK scaffold protein 4)	0.625	inactive
FXR1 (FMR1 autosomal homolog 1)	0.625	inactive
PDXK (pyridoxal kinase)	-0.664	inactive
AK4 (adenylate kinase 4)	0.122	inactive
SPHK2 (sphingosine kinase 2)	-0.787	inactive
MOK (MOK protein kinase)	-0.677	inactive
NEK10 (NIMA related kinase 10)	0.625	inactive
ADGRL2 (adhesion G protein-coupled receptor L2)	0.625	inactive
TWF1 (twinfilin actin binding protein 1)	0.625	inactive
MAPK14 (mitogen-activated protein kinase 14)	-1.87	inactive
PLK3 (polo like kinase 3)	0.625	inactive
PRKACB (protein kinase cAMP-activated catalytic subunit beta)	0.625	inactive
FLT1 (fms related receptor tyrosine kinase 1)	0.625	inactive
PKM (pyruvate kinase M1/2)	-0.119	inactive
MAST2 (microtubule associated serine/threonine kinase 2)	0.625	inactive
ACVRL1 (activin A receptor like type 1)	-0.493	inactive
NUAK1 (NUAK family kinase 1)	0.625	inactive
MAP3K15 (mitogen-activated protein kinase kinase kinase 15)	0.625	inactive
HIPK1 (homeodomain interacting protein kinase 1)	0.625	inactive
MAP4K4 (mitogen-activated protein kinase kinase kinase kinase 4)	0.28	inactive
STK3 (serine/threonine kinase 3)	0.321	inactive
ERN2 (endoplasmic reticulum to nucleus signaling 2)	0.625	inactive
STK24 (serine/threonine kinase 24)	-0.198	inactive
IKBKB (inhibitor of nuclear factor kappa B kinase subunit beta)	0.625	inactive
IP6K3 (inositol hexakisphosphate kinase 3)	0.625	inactive
DYRK1B	-0.186	inactive
EFNB3 (ephrin B3)	-1.15	inactive
AURKB (aurora kinase B)	-3.07	active
BRWD1 (bromodomain and WD repeat domain containing 1)	0.625	inactive
ZC3H11A (zinc finger CCCH-type containing 11A)	0.625	inactive
PANK3 (pantothenate kinase 3)	0.625	inactive
PDGFRL (platelet derived growth factor receptor like)	0.625	inactive
PRKACG (protein kinase cAMP-activated catalytic subunit gamma)	0.625	inactive
BCOR (BCL6 corepressor)	-0.117	inactive
EIF2AK3 (eukaryotic translation initiation factor 2 alpha kinase 3)	0.625	inactive
CKS1B (CDC28 protein kinase regulatory subunit 1B)	0.625	inactive
TSSK1B (testis specific serine kinase 1B)	0.537	inactive
CDKL5 (cyclin dependent kinase like 5)	0.625	inactive
CAMK4 (calcium/calmodulin dependent protein kinase IV)	-0.363	inactive
AKT3 (AKT serine/threonine kinase 3)	0.625	inactive
RBM10 (RNA binding motif protein 10)	-2.54	inactive
CTCF (CCCTC-binding factor)	-1.56	inactive
MOS (MOS proto-oncogene, serine/threonine kinase)	0.625	inactive
CDC42BPG (CDC42 binding protein kinase gamma)	-0.247	inactive
BUB1 (BUB1 mitotic checkpoint serine/threonine kinase)	0.625	inactive
ETNK2 (ethanolamine kinase 2)	-2.04	inactive
EPHA8 (EPH receptor A8)	0.477	inactive

Records listed so far called active (1):
Target gene	viability z-score, siRNA alone	outcome
AURKB (aurora kinase B)	-3.07	active
